Assay results reported in doi:10.1101/2024.12.17.628889.
No constants are given. Whether binding was seen depends on the method and setting. In cells and extracts the contact can be indirect. Binding calls can cover weak binding; strength is not graded here.

Protein sequences, listed by entry. Tags and fused reporters are not part of them. Lines headed by an entry give the natural chain unless they say otherwise; changes in a name come on top. Residues count along the entry.
UniProt O75460, residues 19-977: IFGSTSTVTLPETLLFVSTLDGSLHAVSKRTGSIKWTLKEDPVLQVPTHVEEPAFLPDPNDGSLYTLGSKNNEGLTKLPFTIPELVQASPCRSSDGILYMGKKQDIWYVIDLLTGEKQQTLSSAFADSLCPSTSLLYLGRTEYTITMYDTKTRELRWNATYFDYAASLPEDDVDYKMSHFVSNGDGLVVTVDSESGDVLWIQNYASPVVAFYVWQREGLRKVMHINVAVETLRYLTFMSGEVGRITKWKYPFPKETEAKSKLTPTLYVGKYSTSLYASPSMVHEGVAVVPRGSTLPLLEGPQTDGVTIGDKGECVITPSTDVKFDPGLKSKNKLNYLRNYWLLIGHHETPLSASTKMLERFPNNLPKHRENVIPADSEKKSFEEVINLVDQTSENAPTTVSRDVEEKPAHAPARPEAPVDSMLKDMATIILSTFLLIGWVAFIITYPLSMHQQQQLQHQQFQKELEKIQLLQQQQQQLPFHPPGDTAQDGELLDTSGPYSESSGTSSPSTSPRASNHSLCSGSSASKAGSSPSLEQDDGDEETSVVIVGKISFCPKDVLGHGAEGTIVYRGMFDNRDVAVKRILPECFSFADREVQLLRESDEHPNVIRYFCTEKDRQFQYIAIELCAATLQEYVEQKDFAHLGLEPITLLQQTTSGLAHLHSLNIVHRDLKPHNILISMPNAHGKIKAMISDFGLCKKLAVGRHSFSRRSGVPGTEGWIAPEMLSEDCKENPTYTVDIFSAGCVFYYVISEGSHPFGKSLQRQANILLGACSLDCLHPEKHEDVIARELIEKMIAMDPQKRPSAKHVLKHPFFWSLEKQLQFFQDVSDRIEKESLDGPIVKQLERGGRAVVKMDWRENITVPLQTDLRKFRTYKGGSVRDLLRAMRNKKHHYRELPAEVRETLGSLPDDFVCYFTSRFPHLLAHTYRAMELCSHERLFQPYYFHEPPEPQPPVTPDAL
UniProt Q49AH0: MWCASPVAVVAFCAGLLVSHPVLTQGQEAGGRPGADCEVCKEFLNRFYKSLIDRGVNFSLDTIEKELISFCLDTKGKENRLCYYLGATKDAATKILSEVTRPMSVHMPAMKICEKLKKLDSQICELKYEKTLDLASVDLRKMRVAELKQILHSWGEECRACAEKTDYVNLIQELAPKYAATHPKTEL

Biological target: IRE1α BiFC construct (pEZY BiFC IRE1a-NV(CV)) (UniProt O75460)
Assay: split reporter

“C-terminal domain of CDNF (C-CDNF) BiFC construct (pre-NV-C-CDNF) (from UniProt Q49AH0) (domain or fragment)” was tested, and the binding was “binds”.
For “N-terminal domain of CDNF (N-CDNF) BiFC construct (pre-NV-N-CDNF) (from UniProt Q49AH0) (domain or fragment)”, the binding was “binds”.
